Laboratory results as given in publication doi:10.1101/2022.06.06.495046.
Results are given in words; binding and its absence hold for the method and conditions named. For some of these results: Binding seen in cells or lysates may run through a third protein. Some entries that bind do so weakly or less than the wild type.

The chains behind the UniProt entries cited, without tags or fusion partners. Residues count along the entry.
UniProt O00487: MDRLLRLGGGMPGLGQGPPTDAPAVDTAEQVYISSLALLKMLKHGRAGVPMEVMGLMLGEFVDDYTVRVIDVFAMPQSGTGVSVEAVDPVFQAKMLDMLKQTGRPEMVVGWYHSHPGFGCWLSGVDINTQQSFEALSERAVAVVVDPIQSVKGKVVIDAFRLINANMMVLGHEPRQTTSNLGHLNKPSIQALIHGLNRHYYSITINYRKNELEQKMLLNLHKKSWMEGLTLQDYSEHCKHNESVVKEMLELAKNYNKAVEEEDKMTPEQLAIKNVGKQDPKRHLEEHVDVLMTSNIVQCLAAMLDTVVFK
UniProt P49721: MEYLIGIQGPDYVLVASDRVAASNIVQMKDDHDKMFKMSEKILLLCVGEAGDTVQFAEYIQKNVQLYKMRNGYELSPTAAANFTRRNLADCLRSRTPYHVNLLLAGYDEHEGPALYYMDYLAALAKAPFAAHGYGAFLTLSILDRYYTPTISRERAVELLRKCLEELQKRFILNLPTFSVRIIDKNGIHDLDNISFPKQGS
UniProt Q5VYK3: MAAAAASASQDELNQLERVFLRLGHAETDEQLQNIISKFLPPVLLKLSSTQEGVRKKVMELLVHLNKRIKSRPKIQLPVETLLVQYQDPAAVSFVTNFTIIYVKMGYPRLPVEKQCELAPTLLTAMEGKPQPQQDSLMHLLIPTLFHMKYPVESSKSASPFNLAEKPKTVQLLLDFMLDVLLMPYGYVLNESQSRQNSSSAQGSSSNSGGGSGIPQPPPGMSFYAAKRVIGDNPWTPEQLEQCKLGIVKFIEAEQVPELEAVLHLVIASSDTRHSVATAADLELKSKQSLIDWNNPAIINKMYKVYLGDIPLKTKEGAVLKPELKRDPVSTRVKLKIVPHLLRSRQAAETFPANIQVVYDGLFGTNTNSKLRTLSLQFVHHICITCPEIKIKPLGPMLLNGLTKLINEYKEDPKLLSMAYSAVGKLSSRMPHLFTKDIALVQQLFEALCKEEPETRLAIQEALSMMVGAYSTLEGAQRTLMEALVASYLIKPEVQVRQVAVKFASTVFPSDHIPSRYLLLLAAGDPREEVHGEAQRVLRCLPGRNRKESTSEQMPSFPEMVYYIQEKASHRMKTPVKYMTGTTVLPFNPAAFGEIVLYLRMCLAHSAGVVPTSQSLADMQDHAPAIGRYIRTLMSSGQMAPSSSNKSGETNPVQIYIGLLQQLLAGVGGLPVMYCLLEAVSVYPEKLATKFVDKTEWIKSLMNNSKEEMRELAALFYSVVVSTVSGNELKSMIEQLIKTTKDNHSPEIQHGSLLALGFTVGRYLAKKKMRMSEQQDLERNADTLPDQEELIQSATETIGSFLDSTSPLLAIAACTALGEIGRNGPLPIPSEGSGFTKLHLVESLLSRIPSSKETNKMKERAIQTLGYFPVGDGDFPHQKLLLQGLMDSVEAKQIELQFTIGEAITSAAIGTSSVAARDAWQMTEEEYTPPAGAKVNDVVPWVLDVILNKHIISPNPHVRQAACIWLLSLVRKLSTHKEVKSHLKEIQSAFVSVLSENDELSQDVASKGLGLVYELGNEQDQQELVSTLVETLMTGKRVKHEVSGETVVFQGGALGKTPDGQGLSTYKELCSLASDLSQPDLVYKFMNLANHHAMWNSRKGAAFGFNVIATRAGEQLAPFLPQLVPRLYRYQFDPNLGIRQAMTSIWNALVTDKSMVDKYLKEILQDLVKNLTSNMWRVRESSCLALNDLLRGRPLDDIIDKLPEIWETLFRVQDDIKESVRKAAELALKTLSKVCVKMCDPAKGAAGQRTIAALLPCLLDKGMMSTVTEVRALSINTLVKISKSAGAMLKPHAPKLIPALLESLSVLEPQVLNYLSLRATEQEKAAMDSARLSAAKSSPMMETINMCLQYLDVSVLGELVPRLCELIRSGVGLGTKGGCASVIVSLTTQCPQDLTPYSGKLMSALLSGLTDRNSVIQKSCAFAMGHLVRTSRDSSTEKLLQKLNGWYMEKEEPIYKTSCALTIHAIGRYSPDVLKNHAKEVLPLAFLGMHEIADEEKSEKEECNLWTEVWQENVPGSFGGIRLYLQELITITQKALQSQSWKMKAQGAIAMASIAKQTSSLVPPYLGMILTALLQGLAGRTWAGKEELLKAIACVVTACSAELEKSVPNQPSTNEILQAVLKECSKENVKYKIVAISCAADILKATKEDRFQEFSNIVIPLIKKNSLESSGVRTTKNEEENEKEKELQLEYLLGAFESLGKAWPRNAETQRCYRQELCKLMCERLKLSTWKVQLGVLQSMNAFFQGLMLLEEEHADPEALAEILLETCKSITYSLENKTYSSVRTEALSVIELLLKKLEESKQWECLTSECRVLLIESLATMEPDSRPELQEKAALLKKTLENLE
UniProt P28072, residues 35-239: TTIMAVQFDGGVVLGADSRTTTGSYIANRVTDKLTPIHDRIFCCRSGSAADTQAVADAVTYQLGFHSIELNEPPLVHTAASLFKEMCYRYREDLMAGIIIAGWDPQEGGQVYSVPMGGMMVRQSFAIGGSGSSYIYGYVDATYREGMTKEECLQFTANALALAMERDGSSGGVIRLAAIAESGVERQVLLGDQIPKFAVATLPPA
UniProt P54725: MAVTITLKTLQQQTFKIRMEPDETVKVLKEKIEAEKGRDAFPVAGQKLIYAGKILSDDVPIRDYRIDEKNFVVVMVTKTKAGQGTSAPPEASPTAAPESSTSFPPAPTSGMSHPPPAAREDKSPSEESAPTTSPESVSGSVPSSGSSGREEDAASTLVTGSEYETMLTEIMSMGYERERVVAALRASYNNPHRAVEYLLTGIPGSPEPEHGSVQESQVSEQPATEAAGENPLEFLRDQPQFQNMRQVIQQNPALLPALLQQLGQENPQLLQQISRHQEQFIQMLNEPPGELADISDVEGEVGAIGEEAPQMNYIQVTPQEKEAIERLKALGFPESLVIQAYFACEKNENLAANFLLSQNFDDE
UniProt P54727: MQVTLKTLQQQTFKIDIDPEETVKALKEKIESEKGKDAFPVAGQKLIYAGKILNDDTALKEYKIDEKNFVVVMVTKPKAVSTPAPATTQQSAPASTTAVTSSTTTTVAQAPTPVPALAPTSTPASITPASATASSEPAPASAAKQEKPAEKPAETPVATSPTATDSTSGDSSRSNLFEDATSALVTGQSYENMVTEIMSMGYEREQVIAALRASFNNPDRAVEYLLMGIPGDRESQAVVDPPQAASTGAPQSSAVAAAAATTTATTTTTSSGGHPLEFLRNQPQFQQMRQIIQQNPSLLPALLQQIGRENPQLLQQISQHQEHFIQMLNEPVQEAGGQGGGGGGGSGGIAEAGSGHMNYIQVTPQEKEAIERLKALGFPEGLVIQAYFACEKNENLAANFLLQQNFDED

Legend:
[1] = molecular target: PSMD14-HB (19S subunit PSMD14 tagged with TEV protease-cleavable hexahistidine-biotin) (human) (UniProt O00487); assay: native gel or EMSA
[2] = molecular target: PSMD14-HB (19S subunit PSMD14 tagged with TEV protease-cleavable hexahistidine-biotin) (human) (UniProt O00487); assay: pull-down
[3] = molecular target: PSMB2-HB (20S subunit PSMB2 tagged with TEV protease-cleavable hexahistidine-biotin) (human) (UniProt P49721); assay: pull-down

binding [1] | binding [2] | binding [3] | Substance
binds | binds | binds | Ecm29 proteasome adaptor and scaffold (ECPAS) (from UniProt Q5VYK3 1-1845)
 |  | binds | PSMB6 (from UniProt P28072 35-239)
 |  | binds | RAD23A (from UniProt P54725 1-363)
 |  | binds | RAD23B (from UniProt P54727 1-409)
 |  | binds | VCP/p97 (from UniProt P55072 1-806)
